The list is a part of this screen's results and no random one: it gathers tests that were run many times, whatever their T/C, doses with no T/C, and many T/C values between a quarter and a half above the control. Further doses and runs are listed elsewhere. T/C: endpoint of the treated group in % of that of the vehicle group. Some entries give survivors of the animals treated and no T/C: the source files T/C as zero there, which appears to mark a toxic dose or a test without result, not a measured value. Some doses without a T/C left all or most animals alive at the check, yet need not have been tolerated: survival well below the control is almost never listed, so the zero probably covers shortened survival too. Counts of survivors are from the toxicity check (mostly the fifth day) where no day follows; animals may have died later. Schedules are NCI's codes, taken here to give the interval after Q, in days (D) or hours (H), and the number of doses after X. For survival time, the PubChem record calls one and a half times the control and up active, and a quarter to a half above the control has no call in these data; cut-offs in other NCI protocols can differ. Some T/C values are followed by the survivors on the day toxicity was checked, most often the fifth; without a count, all were alive then.
Tested on: L1210 leukemia ip in BDF1 mice, survival T/C
Test: NCI In Vivo Anticancer Drug Screen. Data for tumor model L1210 Leukemia (intraperitoneal) in B6D2F1 (BDF1) mice
Settings: T/C endpoint: mean survival time, higher T/C = longer survival
[1] = dose: 200.0 mg/kg/injection, schedule: Q04DX003 (ip), vehicle: Klucel (hydroxypropylcellulose) (HPC)
[2] = dose: 400.0 mg/kg/injection, schedule: Q01DX009 (ip), vehicle: saline with Tween-80
[3] = dose: 400.0 mg/kg/injection, schedule: Q01DX001 (ip), vehicle: saline

## C/C=C/C=N/n1c(CCC)nc2ccccc2c1=O
dose: 400.0 mg/kg/injection, schedule: Q04DX002 (ip), vehicle: Klucel (hydroxypropylcellulose) (HPC)
  survivor count: 2 of 3

## CC(=O)Nc1ccc2c(c1)Cc1cc(N=Cc3ccccn3)ccc1-2
[1]
  survivor count: 6 of 6

## FC(F)(F)c1cccc(N2CCNCC2)c1
dose: 150.0 mg/kg/injection, schedule: Q01DX001 (ip), vehicle: acid diluted with saline
  survivor count: 0 of 6
dose: 300.0 mg/kg/injection, schedule: Q01DX001 (ip), vehicle: acid diluted with saline
  survivor count: 0 of 6

## COc1ccc(C)cc1NC(=O)SCCSC(=O)Nc1cc(C)ccc1OC
[2]
  survivor count: 4 of 6

## CC1(C)N=C(N)N=C(N)N1c1cccc(OCCOc2ccc([N+](=O)[O-])cc2)c1
[3]
  survivor count: 0 of 6

## COc1ccc(C)cc1NC(=O)Oc1ccc2c(C)cc(=O)oc2c1
[2]
  survivor count: 4 of 6

## Cc1ccc(C(C)C)c(OCC2C(=O)C3CCN2CC3)c1 (stereo not drawn)
dose: 100.0 mg/kg/injection, schedule: Q04DX003 (ip), vehicle: Klucel (hydroxypropylcellulose) (HPC)
  survivor count: 0 of 6
[1]
  survivor count: 0 of 6
dose: 400.0 mg/kg/injection, schedule: Q04DX003 (ip), vehicle: Klucel (hydroxypropylcellulose) (HPC)
  survivor count: 0 of 6

## CCCCCCCSc1ncnc2c1ncn2CO
dose: 175.0 mg/kg/injection, schedule: Q01DX009 (ip), vehicle: other
  T/C: 135 % of control [4 of 6 alive]
dose: 175.0 mg/kg/injection, schedule: Q01DX009 (ip), vehicle: saline
  T/C: 125 % of control
dose: 265.0 mg/kg/injection, schedule: Q01DX009 (ip), vehicle: other
  T/C: 138 % of control
dose: 265.0 mg/kg/injection, schedule: Q01DX009 (ip), vehicle: saline
  T/C: 142 % of control [5 of 6 alive]

## CC(=O)NC(CSCc1c2ccccc2c(C)c2ccccc12)C(=O)O (stereo not drawn)
[2]
  survivor count: 5 of 6

## COc1ccc2nc3cc(Cl)ccc3c(NCCNCCNCCNc3c4ccc(Cl)cc4nc4ccc(OC)cc34)c2c1
dose: 50.0 mg/kg/injection, schedule: Q01DX009 (ip), vehicle: saline with Tween-80
  survivor count: 0 of 6
dose: 200.0 mg/kg/injection, schedule: Q01DX009 (ip), vehicle: saline with Tween-80
  survivor count: 3 of 6
[2]
  survivor count: 1 of 6

## COCBr
dose: 400.0 mg/kg/injection, schedule: Q01DX009 (ip), vehicle: saline
  survivor count: 0 of 6

## CC(C)=CC1CC(C)C2(CCC3(C)CC4C(C(=O)CC4(C)O)/C(C=O)=C\CC32)O1 (stereo not drawn)
dose: 100.0 mg/kg/injection, schedule: Q01DX001 (ip), vehicle: saline
  survivor count: 0 of 6
dose: 200.0 mg/kg/injection, schedule: Q01DX001 (ip), vehicle: saline
  survivor count: 0 of 6
[3]
  survivor count: 0 of 6

## NNc1ccc(S(=O)(=O)C(F)(F)C(F)Cl)cc1 (stereo not drawn)
dose: 400.0 mg/kg/injection, schedule: Q01DX009 (ip), vehicle: gum acacia
  survivor count: 1 of 6
